Experimental data from the supplement of paper PMC12823440, “Inhibitors supercharge kinase turnover through native proteolytic circuits” (Nature, 2025).
Structures can show the parent of a compound that is named as a salt. The list shows a part of the results. Hit calls seldom repeat between salt and free forms of one compound.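 Kinases were expressed as nanoluciferase fusions in K562 cells and luminescence was read every 4 h between 2 and 18 h as percent of control, DMSO set to 100% and a positive control to 0%. A time point counts as decreased when the signal drops significantly (2 sigma). The hit call is the authors' own, does not follow from the count of time points alone, and its rule is not shown.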

Chains of the proteins cited; added tags and fusions are not shown. Lines headed by an entry give the natural chain unless they say otherwise; changes in a name come on top.
UniProt O15530: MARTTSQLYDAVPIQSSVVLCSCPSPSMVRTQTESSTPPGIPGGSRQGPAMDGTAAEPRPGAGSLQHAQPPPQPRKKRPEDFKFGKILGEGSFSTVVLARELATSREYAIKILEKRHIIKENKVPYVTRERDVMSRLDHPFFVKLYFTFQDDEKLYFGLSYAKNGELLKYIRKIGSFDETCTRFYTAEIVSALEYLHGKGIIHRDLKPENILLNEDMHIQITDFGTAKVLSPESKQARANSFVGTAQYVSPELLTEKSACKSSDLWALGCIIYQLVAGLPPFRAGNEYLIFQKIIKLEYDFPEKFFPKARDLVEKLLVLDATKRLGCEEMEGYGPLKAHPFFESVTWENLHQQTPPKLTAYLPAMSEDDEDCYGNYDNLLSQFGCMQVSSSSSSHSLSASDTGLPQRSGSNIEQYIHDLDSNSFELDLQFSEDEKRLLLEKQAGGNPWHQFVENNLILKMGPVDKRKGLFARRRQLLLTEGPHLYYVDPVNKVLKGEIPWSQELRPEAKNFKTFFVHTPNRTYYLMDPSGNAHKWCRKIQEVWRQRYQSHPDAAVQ
UniProt P42356, whole entry, looked up: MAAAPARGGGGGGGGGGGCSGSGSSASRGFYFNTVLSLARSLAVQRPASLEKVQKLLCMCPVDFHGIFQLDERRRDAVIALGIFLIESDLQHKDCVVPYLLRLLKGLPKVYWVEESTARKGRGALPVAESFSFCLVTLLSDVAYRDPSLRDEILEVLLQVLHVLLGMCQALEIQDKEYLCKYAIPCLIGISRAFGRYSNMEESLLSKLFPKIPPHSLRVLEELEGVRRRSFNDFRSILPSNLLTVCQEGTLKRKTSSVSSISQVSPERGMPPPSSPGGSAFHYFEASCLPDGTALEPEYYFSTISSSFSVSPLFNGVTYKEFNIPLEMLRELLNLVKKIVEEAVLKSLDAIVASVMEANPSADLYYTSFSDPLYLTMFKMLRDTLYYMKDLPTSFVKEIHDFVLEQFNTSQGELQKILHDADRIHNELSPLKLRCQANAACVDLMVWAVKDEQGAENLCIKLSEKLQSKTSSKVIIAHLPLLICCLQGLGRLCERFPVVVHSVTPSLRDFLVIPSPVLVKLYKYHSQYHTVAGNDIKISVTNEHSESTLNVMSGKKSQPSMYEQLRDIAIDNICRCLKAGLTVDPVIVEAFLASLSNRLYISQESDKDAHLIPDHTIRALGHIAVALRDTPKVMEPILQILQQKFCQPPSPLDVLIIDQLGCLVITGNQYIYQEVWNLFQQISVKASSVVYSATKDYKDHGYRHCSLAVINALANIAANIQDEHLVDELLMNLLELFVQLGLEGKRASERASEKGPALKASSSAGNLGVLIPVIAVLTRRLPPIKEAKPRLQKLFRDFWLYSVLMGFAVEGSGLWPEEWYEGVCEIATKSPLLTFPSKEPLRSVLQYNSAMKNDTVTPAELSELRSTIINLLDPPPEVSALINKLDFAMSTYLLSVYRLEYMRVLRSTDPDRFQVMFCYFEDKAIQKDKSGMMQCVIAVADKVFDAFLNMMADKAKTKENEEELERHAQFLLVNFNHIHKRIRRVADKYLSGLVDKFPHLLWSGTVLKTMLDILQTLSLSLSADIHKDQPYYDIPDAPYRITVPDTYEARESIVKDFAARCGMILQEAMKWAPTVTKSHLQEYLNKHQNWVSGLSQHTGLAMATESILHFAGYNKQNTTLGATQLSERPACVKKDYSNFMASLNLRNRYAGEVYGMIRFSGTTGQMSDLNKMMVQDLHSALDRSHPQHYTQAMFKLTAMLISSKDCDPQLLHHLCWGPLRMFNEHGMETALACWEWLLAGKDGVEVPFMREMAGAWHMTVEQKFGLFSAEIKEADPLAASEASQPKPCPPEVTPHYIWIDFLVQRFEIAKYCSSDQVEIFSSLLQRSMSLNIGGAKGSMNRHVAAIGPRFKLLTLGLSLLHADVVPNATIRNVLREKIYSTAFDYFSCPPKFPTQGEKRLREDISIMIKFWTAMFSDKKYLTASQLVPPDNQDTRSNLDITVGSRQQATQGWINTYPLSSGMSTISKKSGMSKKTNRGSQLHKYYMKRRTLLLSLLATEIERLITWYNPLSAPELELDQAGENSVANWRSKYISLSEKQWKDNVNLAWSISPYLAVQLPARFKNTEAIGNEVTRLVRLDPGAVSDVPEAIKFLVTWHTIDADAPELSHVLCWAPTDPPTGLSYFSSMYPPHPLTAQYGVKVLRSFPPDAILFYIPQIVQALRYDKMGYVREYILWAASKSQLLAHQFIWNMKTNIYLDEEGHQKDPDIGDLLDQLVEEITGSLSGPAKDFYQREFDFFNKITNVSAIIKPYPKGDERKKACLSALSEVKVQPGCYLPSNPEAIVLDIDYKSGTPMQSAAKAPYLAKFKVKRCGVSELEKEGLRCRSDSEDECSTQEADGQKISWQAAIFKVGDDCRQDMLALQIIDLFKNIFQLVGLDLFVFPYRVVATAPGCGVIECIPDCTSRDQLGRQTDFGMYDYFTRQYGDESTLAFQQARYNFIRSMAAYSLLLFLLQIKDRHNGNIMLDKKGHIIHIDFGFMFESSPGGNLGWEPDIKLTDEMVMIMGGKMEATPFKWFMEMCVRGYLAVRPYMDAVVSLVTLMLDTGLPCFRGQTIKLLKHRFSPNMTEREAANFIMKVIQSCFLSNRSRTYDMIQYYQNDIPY
UniProt Q9UBF8: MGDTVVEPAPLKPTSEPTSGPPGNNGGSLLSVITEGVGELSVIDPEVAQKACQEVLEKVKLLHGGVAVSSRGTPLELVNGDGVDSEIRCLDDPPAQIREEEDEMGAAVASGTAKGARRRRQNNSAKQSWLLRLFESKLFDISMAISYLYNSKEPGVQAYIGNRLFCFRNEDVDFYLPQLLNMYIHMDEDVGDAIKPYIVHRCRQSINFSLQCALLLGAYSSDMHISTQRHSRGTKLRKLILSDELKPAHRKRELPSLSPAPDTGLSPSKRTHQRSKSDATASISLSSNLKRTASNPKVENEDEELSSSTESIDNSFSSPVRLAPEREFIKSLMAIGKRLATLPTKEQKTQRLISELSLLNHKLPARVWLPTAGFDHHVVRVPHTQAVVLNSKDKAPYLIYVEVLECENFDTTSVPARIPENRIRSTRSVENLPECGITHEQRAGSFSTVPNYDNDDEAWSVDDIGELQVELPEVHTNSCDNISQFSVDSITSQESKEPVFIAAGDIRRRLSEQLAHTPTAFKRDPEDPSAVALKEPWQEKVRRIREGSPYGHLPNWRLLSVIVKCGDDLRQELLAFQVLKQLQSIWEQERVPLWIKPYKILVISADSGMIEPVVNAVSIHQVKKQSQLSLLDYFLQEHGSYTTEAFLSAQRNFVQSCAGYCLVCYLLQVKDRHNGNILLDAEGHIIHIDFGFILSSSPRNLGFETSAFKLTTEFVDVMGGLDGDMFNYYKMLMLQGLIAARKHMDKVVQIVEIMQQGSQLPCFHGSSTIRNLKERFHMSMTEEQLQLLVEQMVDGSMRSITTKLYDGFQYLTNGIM
UniProt P53350, whole entry: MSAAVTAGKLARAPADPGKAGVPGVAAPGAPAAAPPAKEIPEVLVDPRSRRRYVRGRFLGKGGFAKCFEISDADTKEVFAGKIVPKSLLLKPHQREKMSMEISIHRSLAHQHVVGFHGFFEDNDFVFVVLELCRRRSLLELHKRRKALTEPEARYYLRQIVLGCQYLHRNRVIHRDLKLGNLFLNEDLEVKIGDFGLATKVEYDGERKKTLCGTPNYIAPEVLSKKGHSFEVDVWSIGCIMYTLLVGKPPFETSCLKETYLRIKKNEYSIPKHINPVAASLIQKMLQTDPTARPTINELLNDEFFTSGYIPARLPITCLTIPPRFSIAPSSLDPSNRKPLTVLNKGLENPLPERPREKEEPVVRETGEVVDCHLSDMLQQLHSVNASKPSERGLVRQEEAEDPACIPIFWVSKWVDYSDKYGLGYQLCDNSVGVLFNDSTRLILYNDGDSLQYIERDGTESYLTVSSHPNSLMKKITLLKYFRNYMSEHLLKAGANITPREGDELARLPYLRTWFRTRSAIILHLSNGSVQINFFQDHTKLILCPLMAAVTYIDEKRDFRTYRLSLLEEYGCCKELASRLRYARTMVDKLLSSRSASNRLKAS
UniProt Q13131: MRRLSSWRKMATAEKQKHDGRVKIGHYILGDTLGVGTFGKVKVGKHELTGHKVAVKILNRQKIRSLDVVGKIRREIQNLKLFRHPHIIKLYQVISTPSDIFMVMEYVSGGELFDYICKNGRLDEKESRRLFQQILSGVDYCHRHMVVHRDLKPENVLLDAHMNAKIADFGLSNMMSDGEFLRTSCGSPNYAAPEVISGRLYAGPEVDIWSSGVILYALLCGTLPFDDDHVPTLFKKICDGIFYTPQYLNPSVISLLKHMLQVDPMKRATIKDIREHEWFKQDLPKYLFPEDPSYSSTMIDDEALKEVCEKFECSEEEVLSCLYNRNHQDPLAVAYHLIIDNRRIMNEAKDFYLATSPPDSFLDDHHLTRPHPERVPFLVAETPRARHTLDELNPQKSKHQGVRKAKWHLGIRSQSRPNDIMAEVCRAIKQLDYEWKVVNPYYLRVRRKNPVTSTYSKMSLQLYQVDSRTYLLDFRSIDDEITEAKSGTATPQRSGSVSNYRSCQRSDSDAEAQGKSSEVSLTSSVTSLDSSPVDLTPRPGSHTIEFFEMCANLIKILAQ
UniProt Q13546: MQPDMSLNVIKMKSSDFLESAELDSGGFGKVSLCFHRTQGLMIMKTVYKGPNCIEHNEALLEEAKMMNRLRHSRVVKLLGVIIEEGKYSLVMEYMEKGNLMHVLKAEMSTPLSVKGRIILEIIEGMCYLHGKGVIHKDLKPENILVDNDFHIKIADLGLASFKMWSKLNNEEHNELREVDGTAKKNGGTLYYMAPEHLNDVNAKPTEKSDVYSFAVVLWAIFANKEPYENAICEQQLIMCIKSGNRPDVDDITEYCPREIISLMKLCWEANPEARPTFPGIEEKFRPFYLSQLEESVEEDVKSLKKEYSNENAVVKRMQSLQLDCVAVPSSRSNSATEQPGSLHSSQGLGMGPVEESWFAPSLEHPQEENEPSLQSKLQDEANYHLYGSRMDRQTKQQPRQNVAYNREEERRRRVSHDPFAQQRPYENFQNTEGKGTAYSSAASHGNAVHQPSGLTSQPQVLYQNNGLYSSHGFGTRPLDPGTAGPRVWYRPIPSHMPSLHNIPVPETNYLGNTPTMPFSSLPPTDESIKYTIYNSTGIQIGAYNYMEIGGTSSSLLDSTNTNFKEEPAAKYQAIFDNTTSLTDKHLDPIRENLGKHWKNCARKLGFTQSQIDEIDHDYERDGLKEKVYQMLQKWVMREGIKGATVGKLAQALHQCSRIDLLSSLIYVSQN
UniProt Q9NYA1, whole entry: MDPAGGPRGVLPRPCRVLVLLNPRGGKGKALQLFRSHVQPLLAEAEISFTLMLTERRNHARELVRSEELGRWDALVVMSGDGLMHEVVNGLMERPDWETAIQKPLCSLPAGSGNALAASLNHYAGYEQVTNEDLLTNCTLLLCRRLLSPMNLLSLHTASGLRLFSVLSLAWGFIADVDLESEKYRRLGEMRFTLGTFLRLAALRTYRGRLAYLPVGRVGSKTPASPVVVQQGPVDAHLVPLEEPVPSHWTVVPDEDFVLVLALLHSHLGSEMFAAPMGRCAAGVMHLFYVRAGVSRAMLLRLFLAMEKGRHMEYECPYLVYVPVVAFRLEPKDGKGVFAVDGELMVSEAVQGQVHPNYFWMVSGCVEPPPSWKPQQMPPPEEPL

Experiments:
Assay in all cases: kinase-Nluc reporter destabilization hit call (1 = scored as downregulated) (binary); higher = compound decreases kinase abundance
Conditions in all cases: K562, 2-18 h
[1] = target: PDPK1 (UniProt O15530)
[2] = target: PIK4CA (UniProt P42356)
[3] = target: PIK4CB (UniProt Q9UBF8)
[4] = target: PLK1 (UniProt P53350)
[5] = target: PRKAA1 (UniProt Q13131)
[6] = target: PRKCA (UniProt P17252)
[7] = target: PTK2 (UniProt Q05397)
[8] = target: PTK2B (UniProt Q14289)
[9] = target: RAF1 (UniProt P04049)
[10] = target: RAF1_S257L (clone: RAF1_mut) (UniProt P04049)
[11] = target: RET (UniProt P07949)
[12] = target: RET_M918T (clone: RET_mut) (UniProt P07949)
[13] = target: RIOK1 (UniProt Q9BRS2)
[14] = target: RIPK1 (UniProt Q13546)
[15] = target: RIPK2 (UniProt O43353)
[16] = target: ROR2 (UniProt Q01974)
[17] = target: RPS6KA1 (UniProt Q15418)
[18] = target: SPHK1 (UniProt Q9NYA1)
[19] = target: SRC (UniProt P12931)
[20] = target: STK24 (UniProt Q9Y6E0)

Measured: kinase-Nluc reporter destabilization hit call

COc1ccnc(C[S+]([O-])c2nc3cc(-n4cccc4)ccc3[nH]2)c1C (stereo not given) [Ilaprazole]
inactive: [1]; 10 µM 0 | [2]; 10 µM 0 | [3]; 10 µM 0 | [4]; 10 µM 0 | [5]; 10 µM 0 | [6]; 10 µM 0 | [7]; 10 µM 0 | [8]; 10 µM 0 | [9]; 10 µM 0 | [10]; 10 µM 0 | [11]; 10 µM 0 | [12]; 10 µM 0 | [13]; 10 µM 0 | [14]; 10 µM 0 | [15]; 10 µM 0 | [16]; 10 µM 0 | [17]; 10 µM 0 | [18]; 10 µM 0 | [19]; 10 µM 0 | [20]; 10 µM 0

C#Cc1cccc(Nc2ncnc3cc4c(cc23)OCCOCCOCCO4)c1 [Icotinib]
inactive: [1]; 10 µM 0 | [2]; 10 µM 0 | [3]; 10 µM 0 | [4]; 10 µM 0 | [5]; 10 µM 0 | [6]; 10 µM 0 | [7]; 10 µM 0 | [8]; 10 µM 0 | [9]; 10 µM 0 | [10]; 10 µM 0 | [11]; 10 µM 0 | [12]; 10 µM 0 | [13]; 10 µM 0 | [14]; 10 µM 0 | [15]; 10 µM 0 | [16]; 10 µM 0 | [17]; 10 µM 0 | [18]; 10 µM 0 | [19]; 10 µM 0 | [20]; 10 µM 0

CNC(=O)c1cc(Oc2ccc(NC(=O)Nc3ccc(Cl)c(C(F)(F)F)c3)c(F)c2)ccn1 [Regorafenib]
inactive: [1]; 2.5 µM 0 | [2]; 2.5 µM 0 | [3]; 2.5 µM 0 | [4]; 2.5 µM 0 | [5]; 2.5 µM 0 | [6]; 2.5 µM 0 | [7]; 2.5 µM 0 | [8]; 2.5 µM 0 | [9]; 2.5 µM 0 | [10]; 2.5 µM 0 | [11]; 2.5 µM 0 | [12]; 2.5 µM 0 | [13]; 2.5 µM 0 | [14]; 2.5 µM 0 | [15]; 2.5 µM 0 | [16]; 2.5 µM 0 | [17]; 2.5 µM 0 | [18]; 2.5 µM 0 | [19]; 2.5 µM 0 | [20]; 2.5 µM 0

COc1ccc2c(c1)C(c1ccc(F)cc1)=C(CN1CCCC1)CO2
inactive: [1]; 10 µM 0 | [2]; 10 µM 0 | [3]; 10 µM 0 | [4]; 10 µM 0 | [5]; 10 µM 0 | [6]; 10 µM 0 | [7]; 10 µM 0 | [8]; 10 µM 0 | [9]; 10 µM 0 | [10]; 10 µM 0 | [11]; 10 µM 0 | [12]; 10 µM 0 | [13]; 10 µM 0 | [14]; 10 µM 0 | [15]; 10 µM 0 | [16]; 10 µM 0 | [17]; 10 µM 0 | [18]; 10 µM 0 | [19]; 10 µM 0 | [20]; 10 µM 0

CNc1ncc2cc(-c3ccc(-c4cccc(C)n4)cc3Cl)c(=O)n(C[C@H]3OC[C@H](N)CO3)c2n1 [G-5555 (hydrochloride)]
inactive: [1]; 10 µM 0 | [2]; 10 µM 0 | [3]; 10 µM 0 | [4]; 10 µM 0 | [5]; 10 µM 0 | [6]; 10 µM 0 | [7]; 10 µM 0 | [8]; 10 µM 0 | [9]; 10 µM 0 | [10]; 10 µM 0 | [11]; 10 µM 0 | [12]; 10 µM 0 | [13]; 10 µM 0 | [14]; 10 µM 0 | [15]; 10 µM 0 | [16]; 10 µM 0 | [17]; 10 µM 0 | [18]; 10 µM 0 | [19]; 10 µM 0 | [20]; 10 µM 0

CC(C)Nc1cc(-c2c[nH]c(C(=O)N[C@H](CO)c3cccc(Cl)c3)c2)c(Cl)cn1 [Ulixertinib]
inactive: [1]; 10 µM 0 | [2]; 10 µM 0 | [3]; 10 µM 0 | [4]; 10 µM 0 | [5]; 10 µM 0 | [6]; 10 µM 0 | [7]; 10 µM 0 | [8]; 10 µM 0 | [9]; 10 µM 0 | [10]; 10 µM 0 | [11]; 10 µM 0 | [12]; 10 µM 0 | [13]; 10 µM 0 | [14]; 10 µM 0 | [15]; 10 µM 0 | [16]; 10 µM 0 | [17]; 10 µM 0 | [18]; 10 µM 0 | [19]; 10 µM 0 | [20]; 10 µM 0

CN(C)C(=O)c1cc2cnc(Nc3ccc(N4CCNCC4)cn3)nc2n1C1CCCC1 [Ribociclib]
inactive: [1]; 10 µM 0 | [2]; 10 µM 0 | [3]; 10 µM 0 | [4]; 10 µM 0 | [5]; 10 µM 0 | [6]; 10 µM 0 | [7]; 10 µM 0 | [8]; 10 µM 0 | [9]; 10 µM 0 | [10]; 10 µM 0 | [11]; 10 µM 0 | [12]; 10 µM 0 | [13]; 10 µM 0 | [14]; 10 µM 0 | [15]; 10 µM 0 | [16]; 10 µM 0 | [17]; 10 µM 0 | [18]; 10 µM 0 | [19]; 10 µM 0 | [20]; 10 µM 0

CN(C)C(=O)c1cc2cnc(Nc3ccc(N4CCNCC4)cn3)nc2n1C1CCCC1 [Ribociclib succinate hydrate]
inactive: [1]; 2.5 µM 0 | [2]; 2.5 µM 0 | [3]; 2.5 µM 0 | [4]; 2.5 µM 0 | [5]; 2.5 µM 0 | [6]; 2.5 µM 0 | [7]; 2.5 µM 0 | [8]; 2.5 µM 0 | [9]; 2.5 µM 0 | [10]; 2.5 µM 0 | [11]; 2.5 µM 0 | [12]; 2.5 µM 0 | [13]; 2.5 µM 0 | [14]; 2.5 µM 0 | [15]; 2.5 µM 0 | [16]; 2.5 µM 0 | [17]; 2.5 µM 0 | [18]; 2.5 µM 0 | [19]; 2.5 µM 0 | [20]; 2.5 µM 0

C#Cc1cccc(Nc2ncnc3cc4c(cc23)OCCOCCOCCO4)c1 [Icotinib (Hydrochloride)]
inactive: [1]; 10 µM 0 | [2]; 10 µM 0 | [3]; 10 µM 0 | [4]; 10 µM 0 | [5]; 10 µM 0 | [6]; 10 µM 0 | [7]; 10 µM 0 | [8]; 10 µM 0 | [9]; 10 µM 0 | [10]; 10 µM 0 | [11]; 10 µM 0 | [12]; 10 µM 0 | [13]; 10 µM 0 | [14]; 10 µM 0 | [15]; 10 µM 0 | [16]; 10 µM 0 | [17]; 10 µM 0 | [18]; 10 µM 0 | [19]; 10 µM 0 | [20]; 10 µM 0
